Source: PubChem BioAssay AID493246 (Drosophila RNAi Screening Center, 2011)
In all, the deposit lists about 21,000 reagents; below is an unselected part of those that have a named target and a result. Over the whole deposit, 429 (2%) are marked active. 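Values are raw and not normalised between plates; calls rest on per-plate z-scores that were not deposited.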 A plus sign joins genes that one reagent is predicted to hit. No sequences are given here. Not given: the amount of reagent, the time to read-out.

- Purpose: 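Genes fly cells need to grow and stay alive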 (primary screen)
- System: Drosophila Kc and S2R+ cells
- Reagents: long dsRNA against Drosophila genes
- Measurement: 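Raw, unnormalised count of remaining cells in each well; per-plate z-scores of cell number underlie the calls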
- Reading the numbers: Kc cell number and S2R+ cell number: higher = more cells remaining
- Rule for the call: 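Active when the per-plate z-score of cell number is 3 or more in the direction of fewer cells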

| gene | amplicon | Kc cell number, rep 1 | Kc cell number, rep 2 | S2R+ cell number, rep 1 | S2R+ cell number, rep 2 | outcome |
| --- | --- | --- | --- | --- | --- | --- |
| hoe2 | DRSC00459 | 1.60e6 | 1.50e6 | 1.24e6 | 1.38e6 | inactive |
| CG2256 | DRSC18220 | 1.58e6 | 1.60e6 | 1.05e6 | 1.18e6 | inactive |
| CG18814 | DRSC10347 | 1.44e6 | 1.59e6 | 1.19e6 | 1.30e6 | inactive |
| CG11815 | DRSC08209 | 1.51e6 | 1.32e6 | 9.31e5 | 1.28e6 | inactive |
| CG5757 | DRSC06951 | 1.41e6 | 1.44e6 | 1.16e6 | 1.21e6 | inactive |
| sog | DRSC20379 | 1.38e6 | 1.49e6 | 9.45e5 | 1.03e6 | inactive |
| D19A | DRSC11133 | 1.31e6 | 1.42e6 | 7.04e5 | 7.96e5 | inactive |
| Cht12 | DRSC03844 | 5.00e5 | – | 8.81e5 | – | inactive |
| Pop4 | DRSC10955 | 1.35e6 | 1.30e6 | 1.18e6 | 1.22e6 | inactive |
| pio | DRSC04386 | 1.44e6 | 1.65e6 | 1.13e6 | 1.12e6 | inactive |
| Spn42Db | DRSC05009 | 1.72e6 | 1.71e6 | 1.39e6 | 1.52e6 | inactive |
| CG8180 | DRSC07092 | 1.35e6 | 1.39e6 | 1.03e6 | 1.05e6 | inactive |
| CG8180 | DRSC07093 | 1.59e6 | 1.70e6 | 1.38e6 | 1.56e6 | inactive |
| mRpL32 | DRSC14479 | 1.52e6 | 1.47e6 | 9.54e5 | 1.09e6 | inactive |
| Gprk2 | DRSC16682 | 4.40e5 | – | 6.96e5 | – | inactive |
| CG17019 | DRSC06642 | 1.56e6 | 1.60e6 | 1.23e6 | 1.28e6 | inactive |
| Cul3 | DRSC03537 | 1.39e6 | 1.41e6 | 1.21e6 | 1.18e6 | inactive |
| scaf6 | DRSC10075 | 1.41e6 | 1.59e6 | 1.25e6 | 1.31e6 | inactive |
| scaf6 | DRSC10676 | 1.80e6 | 1.87e6 | 1.31e6 | 1.45e6 | inactive |
| scaf6 | DRSC10678 | 2.03e6 | 2.04e6 | 1.22e6 | 1.38e6 | inactive |
| CG4210 | DRSC15551 | 1.24e6 | 1.32e6 | 1.15e6 | 1.28e6 | inactive |
| Pop2 | DRSC10537 | 1.35e6 | 1.35e6 | 1.12e6 | 1.10e6 | inactive |
| ave | DRSC05502 | 1.42e6 | 1.39e6 | 1.01e6 | 1.14e6 | inactive |
| nxf4 | DRSC12548 | 1.58e6 | 1.74e6 | 1.24e6 | 1.30e6 | inactive |
| CG32625 | DRSC18994 | 1.65e6 | 1.72e6 | 1.10e6 | 1.21e6 | inactive |
| tant | DRSC11401 | 1.65e6 | 1.47e6 | 1.18e6 | 1.24e6 | inactive |
| mTTF | DRSC01909 | 1.51e6 | 1.58e6 | 1.13e6 | 1.29e6 | inactive |
| CG11980 | DRSC14456 | 1.47e6 | 1.55e6 | 1.16e6 | 1.27e6 | inactive |
| CG12402 | DRSC14508 | 1.14e6 | 1.19e6 | 1.23e6 | 1.52e6 | inactive |
| CG3909 | DRSC14150 | 1.66e6 | 1.71e6 | 1.27e6 | 1.42e6 | inactive |
| CR41501 | DRSC07785 | 5.80e5 | – | 8.86e5 | – | inactive |
| CG5543 | DRSC04511 | 1.31e6 | 1.39e6 | 1.06e6 | 1.05e6 | inactive |
| mRpL43 | DRSC04508 | 1.53e6 | 1.46e6 | 9.36e5 | 1.12e6 | inactive |

Targets above whose target name starts with S or s:
| gene | amplicon | Kc cell number, rep 1 | Kc cell number, rep 2 | S2R+ cell number, rep 1 | S2R+ cell number, rep 2 | outcome |
| --- | --- | --- | --- | --- | --- | --- |
| sog | DRSC20379 | 1.38e6 | 1.49e6 | 9.45e5 | 1.03e6 | inactive |
| Spn42Db | DRSC05009 | 1.72e6 | 1.71e6 | 1.39e6 | 1.52e6 | inactive |
| scaf6 | DRSC10075 | 1.41e6 | 1.59e6 | 1.25e6 | 1.31e6 | inactive |
| scaf6 | DRSC10676 | 1.80e6 | 1.87e6 | 1.31e6 | 1.45e6 | inactive |
| scaf6 | DRSC10678 | 2.03e6 | 2.04e6 | 1.22e6 | 1.38e6 | inactive |

Further reagents follow.
| gene | amplicon | Kc cell number, rep 1 | Kc cell number, rep 2 | S2R+ cell number, rep 1 | S2R+ cell number, rep 2 | outcome |
| --- | --- | --- | --- | --- | --- | --- |
| CG11147 | DRSC02129 | 1.43e6 | 1.36e6 | 1.12e6 | 1.26e6 | inactive |
| His1:CG33816 + His1:CG33828 + His1:CG33819 + 21 more | DRSC21266 | 1.33e6 | 1.34e6 | 1.06e6 | 1.23e6 | inactive |
| CG11110 | DRSC06037 | 1.61e6 | 1.45e6 | 1.06e6 | 1.41e6 | inactive |
| Grd | DRSC11178 | 1.17e6 | 1.39e6 | 1.25e6 | 1.35e6 | inactive |
| CAH6 | DRSC15505 | 1.58e6 | 1.58e6 | 1.17e6 | 1.24e6 | inactive |
| CG34045 | DRSC05787 | 5.87e5 | – | 9.08e5 | – | inactive |
| Pih1D1 | DRSC02897 | 1.54e6 | 1.56e6 | 1.15e6 | 1.25e6 | inactive |
| CG1647 | DRSC15134 | 5.28e5 | – | 8.43e5 | – | inactive |
| bug | DRSC07137 | 1.28e6 | 1.32e6 | 1.13e6 | 1.14e6 | inactive |
| Ipp | DRSC16718 | 1.47e6 | 1.69e6 | 1.02e6 | 1.09e6 | inactive |
| Pex1 | DRSC11358 | 1.53e6 | 1.55e6 | 1.20e6 | 1.29e6 | inactive |
| CG7924 | DRSC10931 | 1.47e6 | 1.56e6 | 1.24e6 | 1.26e6 | inactive |
| Rab3-GEF | DRSC19954 | 1.58e6 | 1.59e6 | 1.17e6 | 1.26e6 | inactive |
| Rab3-GEF | DRSC19955 | 1.53e6 | 1.52e6 | 1.16e6 | 1.26e6 | inactive |
| Rab3-GEF | DRSC19956 | 1.44e6 | 1.47e6 | 9.14e5 | 1.00e6 | inactive |
| CG31278 | DRSC16051 | 1.32e6 | 1.33e6 | 1.27e6 | 1.32e6 | inactive |
| mthl10 | DRSC08504 | 1.42e6 | 1.35e6 | 1.13e6 | 1.33e6 | inactive |
| mthl10 | DRSC08505 | 1.66e6 | 1.48e6 | 1.04e6 | 1.39e6 | inactive |
| CG31926 | DRSC00295 | 1.58e6 | 1.63e6 | 1.10e6 | 1.26e6 | inactive |
| RpS5a | DRSC20282 | 1.35e6 | 1.35e6 | 8.15e5 | 9.47e5 | inactive |
| CG17917 | DRSC12570 | 1.49e6 | 1.61e6 | 1.17e6 | 1.25e6 | inactive |
| CG13252 | DRSC11700 | 1.27e6 | 1.28e6 | 1.24e6 | 1.33e6 | inactive |
| Grip163 | DRSC10538 | 1.36e6 | 1.52e6 | 1.25e6 | 1.32e6 | inactive |
| E5 | DRSC13000 | 1.50e6 | 1.59e6 | 8.86e5 | 1.01e6 | inactive |
| E5 | DRSC16585 | 4.79e5 | 4.81e5 | 5.94e5 | 6.78e5 | active |
| CG13051 | DRSC09932 | 1.41e6 | 1.55e6 | 1.39e6 | 1.49e6 | inactive |
